Results: article doi:10.1101/2020.08.17.253450
Read-outs that look alike come from different tables or passages of the source. Results are given in words; binding and its absence hold for the method and conditions named. Some results given as binding are weak or reduced against the parent protein; the word gives no strength.

Tests used:
[1] = biological target: T1, human TMEM39A second cytoplasmic loop domain (a.a. 337-420) (human) (UniProt Q9NV64); assay: two-hybrid
T1 sequence: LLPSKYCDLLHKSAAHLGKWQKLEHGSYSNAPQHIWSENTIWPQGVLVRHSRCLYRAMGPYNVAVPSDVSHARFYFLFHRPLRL

[2] = biological target: T1, human TMEM39A second cytoplasmic loop domain (a.a. 337-420) (human); assay: two-hybrid; remark: listed apart in the source

binding [1]: binds
binding [2]: binds
B1: human Sec23A C-termini (a.a. 583-765) (domain or fragment, UniProt Q15436 583-765)
chain: HLRRSSFLQVFNNSPDESSYYRHHFMRQDLTQSLIMIQPILYAYSFSGPPEPVLLDSSSILADRILLMDTFFQILIYHGETIAQWRKSGYQDMPEYENFRHLLQAPVDDAQEILHSRFPMPRYIDTEHGGSQARFLLSKVNPSQTHNNMYAWGQESGAPILTDDVSLQVFMDHLKKLAVSSAA
